Laboratory results published in PubChem BioAssay AID330 (DTP/NCI, 2004).
The list does not hold the whole screen: it gathers tests that were run many times, whatever their T/C, doses with no T/C, and many T/C values between a quarter and a half above the control. Further doses and runs are listed elsewhere. T/C is the treated group as % of the vehicle group. Some entries give survivors of the animals treated and no T/C: the source holds a T/C of zero for them, seemingly a mark for toxic or unscored doses. Some doses without a T/C left all or most animals alive at the check, yet need not have been tolerated: survival well below the control is almost never listed, so the zero probably covers shortened survival too. Counts of survivors are from the toxicity check (mostly the fifth day) where no day follows; animals may have died later. Schedules are NCI's codes, read here as Q, the interval in days (D) or hours (H), X, the number of doses. Some entries were tested several times; the results are listed from low to high. Some structures stand for samples that the source files as different forms (salt, stereo form or complex); doses refer to the form tested. For survival time, this PubChem deposit counts one and a half times the control or more as active, and values a quarter to a half above the control carry no call in these data; other NCI protocols may use other cut-offs. Some T/C values carry the count of animals alive at the toxicity check (mostly the fifth day); without a count, all were alive then.

System: P388 leukemia ip, CD2F1 mice, survival T/C
Assay: NCI In Vivo Anticancer Drug Screen. Data for tumor model P388 Leukemia (intraperitoneal) in CD2F1 (CDF1) mice
Settings: T/C endpoint: median survival time, higher T/C = longer survival
[1] = dose: 50.0 mg/kg/injection, schedule: Q01DX009 (ip), vehicle: saline with Tween-80
[2] = dose: 240.0 mg/kg/injection, schedule: Q01DX005 (ip), vehicle: saline
[3] = dose: 100.0 mg/kg/injection, schedule: Q01DX009 (ip), vehicle: Klucel (hydroxypropylcellulose) (HPC)
[4] = dose: 200.0 mg/kg/injection, schedule: Q01DX009 (ip), vehicle: Klucel (hydroxypropylcellulose) (HPC)
[5] = dose: 100.0 mg/kg/injection, schedule: Q01DX005 (ip), vehicle: saline with Tween-80
[6] = dose: 200.0 mg/kg/injection, schedule: Q01DX005 (ip), vehicle: saline with Tween-80
[7] = dose: 100.0 mg/kg/injection, schedule: Q01DX009 (ip), vehicle: saline
[8] = dose: 200.0 mg/kg/injection, schedule: Q01DX009 (ip), vehicle: saline
[9] = dose: 50.0 mg/kg/injection, schedule: Q01DX009 (ip), vehicle: Klucel (hydroxypropylcellulose) (HPC)
[10] = dose: 200.0 mg/kg/injection, schedule: Q01DX009 (ip), vehicle: saline with Tween-80
[11] = dose: 400.0 mg/kg/injection, schedule: Q01DX009 (ip), vehicle: saline with Tween-80
[12] = dose: 100.0 mg/kg/injection, schedule: Q04DX003 (ip), vehicle: saline with Tween-80
[13] = dose: 200.0 mg/kg/injection, schedule: Q04DX003 (ip), vehicle: saline with Tween-80
[14] = dose: 400.0 mg/kg/injection, schedule: Q04DX003 (ip), vehicle: saline with Tween-80
[15] = dose: 25.0 mg/kg/injection, schedule: Q04DX003 (ip), vehicle: saline with Tween-80

With `CCC(CN)C1=Nc2ccccc2C1` (stereo not given) the survivor count (dose: 200.0 mg/kg/injection, schedule: Q04DX003 (ip), vehicle: saline) was 2 of 6 and the survivor count (dose: 400.0 mg/kg/injection, schedule: Q04DX003 (ip), vehicle: saline) was 0 of 6.

For `CC(C)=CC(=O)CC(O)(C(F)(F)F)C(F)(F)Cl` (stereo not given), the survivor count [1] was 3 of 6 and the survivor count (dose: 100.0 mg/kg/injection, schedule: Q01DX009 (ip), vehicle: saline with Tween-80) was 2 of 6.

With `CCC(CC)NCCNc1cc(OC)cc2cccnc12` the survivor count (dose: 100.0 mg/kg/injection, schedule: Q01DX005 (ip), vehicle: saline) was 0 of 6 and the survivor count (dose: 200.0 mg/kg/injection, schedule: Q01DX005 (ip), vehicle: saline) was 0 of 6.

`C#CC(=O)CCC` was tested, and the survivor count (dose: 60.0 mg/kg/injection, schedule: Q01DX005 (ip), vehicle: saline with Tween-80) was 0 of 6, the survivor count (dose: 120.0 mg/kg/injection, schedule: Q01DX005 (ip), vehicle: saline with Tween-80) was 0 of 6 and the survivor count (dose: 240.0 mg/kg/injection, schedule: Q01DX005 (ip), vehicle: saline with Tween-80) was 0 of 6.

With `CCC1C2Cc3ccc(O)cc3C1(C)CCN2` (stereo not given) the survivor count [2] was 2 of 6.

With `C=Cc1cnc([N+](=O)[O-])n1C` the T/C [3] was 127 % of control and the T/C [4] was 127 % of control [5 of 6 alive].

In the case of `C1=C[N-]c2c3c(ccc2=C1)=CC=C[N-]3.C1=C[N-]c2c3c(ccc2=C1)=CC=C[N-]3.[Cl][Ru][Cl]`, the survivor count (dose: 12.5 mg/kg/injection, schedule: Q01DX005 (ip), vehicle: saline with Tween-80) was 1 of 6, the survivor count (dose: 25.0 mg/kg/injection, schedule: Q01DX005 (ip), vehicle: saline with Tween-80) was 0 of 6 and the survivor count (dose: 50.0 mg/kg/injection, schedule: Q01DX005 (ip), vehicle: saline with Tween-80) was 0 of 6. The survivor count [5] was 0 of 6 and the survivor count [6] was 0 of 6.

In the case of `CN(C)NC(=O)/C=C\C(=O)O`, the T/C (dose: 50.0 mg/kg/injection, schedule: Q01DX009 (ip), vehicle: saline) was 125 % of control and the T/C [7] was 129 % of control.

`Cc1cc(C)c2c(=O)n(-c3ccc(Br)cc3)c(=S)n(-c3ccc(Br)cc3)c2n1` was tested, and the survivor count [5] was 6 of 6 and the survivor count [6] was 6 of 6.

For `COc1ccc(-c2ccc(OC)c(=O)cc2)c(OC)c1OC`, the survivor count (dose: 200.0 mg/kg/injection, schedule: Q01DX005 (ip), vehicle: Klucel (hydroxypropylcellulose) (HPC)) was 3 of 6.

In the case of `COc1cc2c3cc1Oc1c(OC)c(OC)cc4c1[C@@H](Cc1ccc(O)c(c1)Oc1ccc(cc1)C[C@@H]3N(C)CC2)N(C)CC4`, the survivor count (dose: 240.0 mg/kg/injection, schedule: Q01DX005 (ip), vehicle: Klucel (hydroxypropylcellulose) (HPC)) was 0 of 6 and 2 of 6.

In the case of `C=C1C(=O)O[C@@H]2[C@H](O)[C@@H](C)[C@@H]3C=CC(=O)[C@@]3(C)[C@@H](OC(=O)/C(C)=C/C)[C@H]12`, the T/C (dose: 3.0 mg/kg/injection, schedule: Q01DX009 (ip), vehicle: saline + alcohol) was 125 % of control, the survivor count (dose: 17.5 mg/kg/injection, schedule: Q01DX009 (ip), vehicle: saline + alcohol) was 1 of 6 and the survivor count (dose: 25.0 mg/kg/injection, schedule: Q01DX009 (ip), vehicle: saline + alcohol) was 2 of 4. The survivor count (dose: 35.0 mg/kg/injection, schedule: Q01DX009 (ip), vehicle: saline + alcohol) was 0 of 6.

In the case of `CC(NC(=O)C(NC(=O)c1ccc[n+](Cc2ccccc2)c1)C(C)C)C(N)=O` (stereo not given), the survivor count (dose: 60.0 mg/kg/injection, schedule: Q01DX005 (ip), vehicle: saline) was 6 of 6, the survivor count (dose: 120.0 mg/kg/injection, schedule: Q01DX005 (ip), vehicle: saline) was 1 of 6 and the survivor count [2] was 0 of 6.

In the case of `CO[C@H]1[C@H]2OC(C)(C)O[C@H]2O[C@H]1/C=C1\CC(=O)NC1=O`, the T/C [8] was 131 % of control and the T/C (dose: 400.0 mg/kg/injection, schedule: Q01DX009 (ip), vehicle: suspension in saline) was 137 % of control [5 of 6 alive].

For `c1ccc(C23CN(Cc4ccccc42)Cc2ccccc23)cc1`, the survivor count (dose: 400.0 mg/kg/injection, schedule: Q01DX001 (ip), vehicle: saline with Tween-80) was 1 of 6.

For `c1ccc(-c2cn3ccsc3n2)cc1`, the T/C (dose: 200.0 mg/kg/injection, schedule: Q01DX009 (ip), vehicle: other) was 125 % of control [4 of 6 alive], the survivor count (dose: 400.0 mg/kg/injection, schedule: Q01DX009 (ip), vehicle: other) was 2 of 6 and the survivor count (dose: 800.0 mg/kg/injection, schedule: Q01DX009 (ip), vehicle: other) was 0 of 6. For the same compound, the survivor count (dose: 1600.0 mg/kg/injection, schedule: Q01DX009 (ip), vehicle: other) was 0 of 6.

`Oc1ccccc1N=Nc1ccccc1O.[O]=[V]` was tested, and the survivor count (dose: 25.0 mg/kg/injection, schedule: Q01DX009 (ip), vehicle: Klucel (hydroxypropylcellulose) (HPC)) was 5 of 6, the survivor count [9] was 6 of 6 and the survivor count [3] was 6 of 6. For the same compound, the survivor count [4] was 1 of 6.

`C[N+]12OC3CCC(O)CC1CCCC2C3` (stereo not given) was tested, and the survivor count (dose: 200.0 mg/kg/injection, schedule: Q01DX001 (ip), vehicle: water) was 1 of 6 and the survivor count (dose: 400.0 mg/kg/injection, schedule: Q01DX001 (ip), vehicle: water) was 0 of 6.

For `Cc1nc2c(c(-c3ccc(Cl)cc3)n1)Cc1c(ccc3ccccc13)O2`, the survivor count [7] was 6 of 6.

For `CSC(=S)N/N=C(/C)c1ccco1`, the survivor count [10] was 3 of 6.

`c1ccc(Sc2ncccn2)nc1` was tested, and the survivor count [8] was 0 of 6.

In the case of `Cc1cc(OCc2nc(N)nc(N)c2-c2ccc(Cl)c(Cl)c2)ccc1NS(=O)(=O)c1cccc(S(=O)(=O)F)c1`, the T/C (dose: 117.0 mg/kg/injection, schedule: Q04DX003 (ip), vehicle: saline) was 127 % of control and the T/C (dose: 264.0 mg/kg/injection, schedule: Q04DX003 (ip), vehicle: saline) was 127 % of control.

In the case of `C=CCc1ccccc1C`, the survivor count [11] was 2 of 6.

For `Cc1nc2c([N+](=O)[O-])c(N(C)C)c([N+](=O)[O-])cc2[nH]1`, the survivor count [12] was 0 of 6 and 1 of 6, the survivor count [13] was 0 of 6 and the survivor count [14] was 0 of 6.

`O=C(N/N=C\c1ccc(N(CCCl)CCCl)cc1)c1cccnc1` was tested, and the T/C [9] was 127 % of control and the T/C [3] was 125 % of control [5 of 6 alive].

`CCN(CC)C(CC(=O)C(C)(C)C)=NCCCN1CCN(C)CC1` was tested, and the survivor count [8] was 1 of 6.

With `Cc1cccc(Nc2cc(=O)[nH]c(=O)[nH]2)c1` the survivor count (dose: 400.0 mg/kg/injection, schedule: Q04DX003 (ip), vehicle: Klucel (hydroxypropylcellulose) (HPC)) was 3 of 6.

`CC1=CCC(C(C)C)C=C1` (stereo not given) was tested, and the survivor count [10] was 5 of 6 and the survivor count [11] was 0 of 6.

For `CCCOP(=S)(N1CC1C)N1CC1(C)C` (stereo not given), the T/C [15] was 136 % of control, the T/C [1] was 131 % of control and the survivor count [10] was 5 of 6.

With `COc1ccc2c(c1)C(Cc1ccc(Oc3ccc(CC4c5cc(OC)ccc5CC[N+]4(C)C)cc3)cc1)[N+](C)(C)CC2` (stereo not given) the survivor count (dose: 3.13 mg/kg/injection, schedule: Q04DX003 (ip), vehicle: water) was 6 of 6, the survivor count (dose: 6.25 mg/kg/injection, schedule: Q04DX003 (ip), vehicle: saline with Tween-80) was 0 of 6 and the survivor count (dose: 6.25 mg/kg/injection, schedule: Q04DX003 (ip), vehicle: water) was 0 of 6. For the same compound, the survivor count (dose: 12.5 mg/kg/injection, schedule: Q04DX003 (ip), vehicle: saline with Tween-80) was 0 of 6, the survivor count [15] was 0 of 6 and the survivor count (dose: 50.0 mg/kg/injection, schedule: Q04DX003 (ip), vehicle: saline with Tween-80) was 0 of 6. For the same compound, the survivor count [12] was 0 of 6, the survivor count [13] was 0 of 6 and the survivor count [14] was 0 of 6.
